# Experiments:
# [1] = Deployment of POG in coastal waters, Thames River Estuary (Experimental 5); conditions: 12 days in situ
# [2] = Detection of PBDEs by POGs in bottom waters, Thames River Estuary (Experimental 6); conditions: 14 days in situ
# [3] = format: physicochemical; conditions: calculated at 1, 2, or 6 hrs, artificial seawater 31 ppt, 20° C.
# Description: The polymer coated glass samplers (POG) and the organic rapid equilibrating (ORE) samplers, 10 and 20, both consisting of a thin film (on the order of ˜1-2 μm) of EVA, were calibrated by experimental determination of EVA-Water partition coefficients and sampling rates. The ORE is comprised of a 1.4 μm EVA coating on a 5.1×7.6 cm titanium plate, while the POG utilizes a thin-film of EVA on a glass fiber filter.
# A closed system experiment was used to calibrate the POG and ORE devices. Sampling rates and equilibration times were determined for fourteen PBDE congeners. EVA-Water partitioning coefficients (KEVA-W) were experimentally determined for 5 BDE congeners. A Log KEVA-W−Log KOW (Octanol-Water partitioning coefficient) plot was constructed and used to define Log KEVA-W partitioning coefficients for the 14 BDE congeners examined. Values ranged from 6.39 to 10.6. The experimental design was successful in parameterizing the desired constants. In sum, both samplers were successfully calibrated.
# A dichloromethane rinsed 20 gallon fish tank was employed for the tank deployment experimental. Three POGs and three OREs were suspended from a stainless steel frame proximate the top of the tank.
# Once dry, the tank was filled with artificial seawater comprising sodium chloride, sodium bicarbonate, magnesium sulfate, and high purity Milli-Q water. A handheld multiparameter instrument (YSI-556) was used to confirm salinity (31 parts per thousand), dissolved oxygen (0.19 mM), and temperature (20° C.) prior to starting the experiment. The tank was fit with a plexiglass lid sealed with polytetrafluoroethylene (PTFE; i.e., Teflon®) and duct tape.
# The tank was spiked with 0.2 mL of the PBDE Predominant Congener Mixture in n-nonane from Cambridge Isotope laboratories and allowed to equilibrate for 48 hours. Samplers were removed from refrigeration and allowed to equilibrate to room temperature. 400 mL of water was taken to establish the initial concentration. Seven sets of three samplers were added to the tank. The tank was secured with a lid, PTFE and duct tape, as described above. Four hundred milliliter aliquots of tank water and one sampler set were removed at the following time intervals: 1 hr, 2 hrs, 6 hrs, 12 hrs, 3 days, 12 days, and 32 days. The tank was open to the air in the fume hood for less than 4 minutes during each sampling period. After removal, each sampler set was wrapped in pre-cleaned aluminum foil and placed frozen in an airtight bag at −20° C. until extraction and analysis. Water-side 400 mL aliquots were frozen at −20° C. until extraction and analysis.
# The POGs and OREs were extracted for analysis of PBDE concentration.
# Extracts were analyzed for BDE congeners 17, 28, 47, 66, 71, 85, 99, 100, 138, 153, 154, 183, 190, and 209 by gas chromatography-mass spectrometry (GC/MS). Masses 79 (PBDEs) and 414 (Mirex) were used for quantification with Masses 81 (PBDEs), 487, 486 (DecaBDE), and 412 (Mirex) acting as confirmation ions. Extracts were identified and quantified by comparison with known concentrations of prepared standard solutions.
# Sampling rates were calculated experimentally using Equation 2. The sampling rates varied between sampler types. The differences in sampling rates were likely due to variations in the thickness and heterogeneity versus homogeneity of the thin film coating on the respective plates. Sampling rates (RS(s)) were calculated at 1, 2, or 6 hrs depending upon the shape of the uptake curve.
Compound,"blank-corrected water concentration ([1]; Station 1, POG)","blank-corrected water concentration ([1]; Station 2, POG)","blank-corrected water concentration ([1]; Station 3, POG)","blank corrected water concentration ([2]; Station 3, POG)",Rs (sampling rate) ORE [3],Rs (sampling rate) POG [3],"blank corrected water concentration ([2]; Station 1, POG)","blank corrected water concentration ([2]; Station 2, POG)"
O=S1OC[C@@H]2[C@H](CO1)[C@@]1(Cl)C(Cl)=C(Cl)[C@]2(Cl)C1(Cl)Cl (stereo partly shown) [A-Endosulfan],120 pg/L,63 pg/L,64 pg/L,–,–,–,–,–
CCNc1nc(Cl)nc(NC(C)C)n1 [Atrazine],47000 pg/L,74000 pg/L,72000 pg/L,–,–,–,–,–
Brc1ccc(Oc2ccccc2Br)c(Br)c1 [BDE 17],1.2 pg/L,–,0.23 pg/L,0.60 pg/L,6.4 Ld^−1,3.2 Ld^−1,–,–
Brc1ccc(Oc2ccc(Br)cc2Br)cc1 [BDE 28],0.56 pg/L,–,0.56 pg/L,–,7.6 Ld^−1,4.8 Ld^−1,0.73 pg/L,1.57 pg/L
Brc1ccc(Oc2ccc(Br)cc2Br)c(Br)c1 [BDE 47],18 pg/L,–,7.7 pg/L,–,4.9 Ld^−1,9.9 Ld^−1,–,1.49 pg/L
Brc1ccc(Oc2ccc(Br)c(Br)c2)c(Br)c1 [BDE 66],0.38 pg/L,–,0.30 pg/L,0.30 pg/L,5.6 Ld^−1,6.9 Ld^−1,0.58 pg/L,0.67 pg/L
Brc1ccc(Oc2c(Br)cccc2Br)cc1Br [BDE 71],0.55 pg/L,–,0.14 pg/L,0.13 pg/L,6.1 Ld^−1,7.6 Ld^−1,–,0.40 pg/L
Brc1ccc(Oc2ccc(Br)c(Br)c2Br)c(Br)c1 [BDE 85],0.76 pg/L,–,0.49 pg/L,0.35 pg/L,8.8 Ld^−1,8.2 Ld^−1,0.33 pg/L,2.25 pg/L
Brc1ccc(Oc2cc(Br)c(Br)cc2Br)c(Br)c1 [BDE 99],39 pg/L,–,23 pg/L,–,4.0 Ld^−1,6.5 Ld^−1,–,7.86 pg/L
Brc1ccc(Oc2c(Br)cc(Br)cc2Br)c(Br)c1 [BDE 100],17 pg/L,–,9.7 pg/L,1.20 pg/L,4.2 Ld^−1,4.5 Ld^−1,2.62 pg/L,3.68 pg/L
Brc1cc(Br)c(Oc2ccc(Br)c(Br)c2Br)cc1Br [BDE 138],–,–,–,–,4.1 Ld^−1,5.1 Ld^−1,–,–
Brc1cc(Br)c(Oc2cc(Br)c(Br)cc2Br)cc1Br [BDE 153],0.40 pg/L,–,0.39 pg/L,0.37 pg/L,2.8 Ld^−1,6.5 Ld^−1,2.03 pg/L,0.96 pg/L
Brc1cc(Br)c(Oc2cc(Br)c(Br)cc2Br)c(Br)c1 [BDE 154],0.94 pg/L,–,0.31 pg/L,0.07 pg/L,2.6 Ld^−1,5.7 Ld^−1,0.14 pg/L,1.74 pg/L
Brc1cc(Br)c(Oc2c(Br)cc(Br)c(Br)c2Br)cc1Br [BDE 183],–,–,–,0.45 pg/L,8.6 Ld^−1,7.5 Ld^−1,1.59 pg/L,1.35 pg/L
Brc1ccc(Oc2c(Br)c(Br)c(Br)c(Br)c2Br)cc1Br [BDE 190],–,–,–,–,10.4 Ld^−1,11.4 Ld^−1,–,–
Brc1c(Br)c(Br)c(Oc2c(Br)c(Br)c(Br)c(Br)c2Br)c(Br)c1Br [BDE 209],–,–,–,1.45 pg/L,7.5 Ld^−1,6.7 Ld^−1,28.16 pg/L,30.89 pg/L
N#Cc1c(Cl)c(Cl)c(Cl)c(C#N)c1Cl [Chlorothalonil],6800 pg/L,6400 pg/L,6300 pg/L,–,–,–,–,–
CCC(CC)Nc1c([N+](=O)[O-])cc(C)c(C)c1[N+](=O)[O-] [Pendimethalin],38 pg/L,33 pg/L,34 pg/L,–,–,–,–,–
CCCN(CCC)c1c([N+](=O)[O-])cc(C(F)(F)F)cc1[N+](=O)[O-] [Trifluralin],1.4 pg/L,0.5 pg/L,0.8 pg/L,–,–,–,–,–
